Data published in patent publication US20220074937A1.
These are yes or no findings as the source states them, for the method shown.

Experiments:
[1] = biological target: BCMA CAR on the cell surface (BCMA CAR-T cells); experiment: flow cytometry on BCMA CAR-T cells
[2] = biological target: BCMA CAR on the cell surface (BCMA CAR-T cells); experiment: flow cytometry on BCMA CAR-T cells, goat anti-rabbit IgG-Alexa Fluor 488

B1: rabbit monoclonal antibody R19mab against FMC63 scFv (antibody, V domains shown)
VH: QSLEESGGRLVTPGTPLTLTCTVSGIDFRNYGVSWVRQAPGKGLEWIGIFSSSGSTYYATWAKGRFTISKASSTTVDLKMTSLTTEDTATYFCARHPGPTNGWKLWGPGTLVTVSS
VL: DVVMTQTPASVEAPVGGTVTIKCQASQSVSGYCSWYQQKPGQPPKLLIYRASTLESGVPSRFSGSGSGTDFTLTISDLECADAATYYCQSNYNSGSSSSAAAFGGGTEVVVK
- binding [1]: no binding
- binding [2]: no binding
